PubChem BioAssay AID246 (DTP/NCI, 2004)
The list is a part of this screen's results and no random one: it is rich in T/C values a quarter to a half above the control, in often repeated tests (any T/C) and in doses without a T/C. Further doses and runs are listed elsewhere. T/C is the treated group as % of the vehicle group. Some entries give survivors of the animals treated and no T/C: the source files T/C as zero there, which appears to mark a toxic dose or a test without result, not a measured value. Some survivor counts are full or nearly so, which does not show that the dose was tolerated: survival well below the control is almost never listed, so the zero probably covers shortened survival too. Counts of survivors are from the toxicity check (mostly the fifth day) where no day follows; animals may have died later. Schedule codes are those of the source, taken here to give the interval after Q, in days (D) or hours (H), and the number of doses after X. Some schedule codes hold Z or #, which are not explained here. Some entries were tested several times; their values stand side by side, smallest first. For survival time, this PubChem deposit counts one and a half times the control or more as active, and values a quarter to a half above the control carry no call in these data; other NCI protocols may use other cut-offs. Brackets with × stand for listed records that agree.

Tested on: BDF1 mice, P1081 chloroleukemia ip, survival T/C
Assay: NCI In Vivo Anticancer Drug Screen. Data for tumor model P1081 Chloroleukemia (intraperitoneal) in B6D2F1 (BDF1) mice
Conditions: T/C endpoint: mean survival time, higher T/C = longer survival
Procedure: The antitumor activity of compounds was measured in mice bearing transplantable tumors. Survival or tumor size were measured and the results are expressed as the measurement made in the treated group (T) divided by the measurement made in the vehicle treated control group (C). The tumor model used in this assay is P1081 Chloroleukemia (intraperitoneal) in B6D2F1 (BDF1) mice

[1] = dose: 2.0 mg/kg/injection, schedule: Q01DX Z (ip), vehicle: saline
[2] = dose: 50.0 mg/kg/injection, schedule: Q01DX Z (ip), vehicle: other
[3] = dose: 100.0 mg/kg/injection, schedule: Q01DX Z (ip), vehicle: other
[4] = dose: 400.0 mg/kg/injection, schedule: Q01DX Z (sc), vehicle: steroid suspending solution
[5] = dose: 12.5 mg/kg/injection, schedule: Q01DX010 (ip), vehicle: saline
[6] = dose: 25.0 mg/kg/injection, schedule: Q01DX Z (ip), vehicle: carboxymethylcellulose (CMC)
[7] = dose: 50.0 mg/kg/injection, schedule: Q01DX Z (ip), vehicle: carboxymethylcellulose (CMC)
[8] = dose: 6.25 mg/kg/injection, schedule: Q01DX010 (ip), vehicle: saline
[9] = dose: 200.0 mg/kg/injection, schedule: Q01DX010 (ip), vehicle: saline
[10] = dose: 20.0 mg/kg/injection, schedule: Q01DX Z (ip), vehicle: saline
[11] = dose: 40.0 mg/kg/injection, schedule: Q01DX Z (ip), vehicle: saline

How did the survivor count [1] turn out when `CSCS(=O)C[C@H](CO)NC(=O)/C=C/c1c(C)[nH]c(=O)[nH]c1=O` (stereo not given in full) was run?
The survivor count was 2 of 6.

Which results are given for `S=c1nc[nH]c2nc[nH]c12`?
survivor count (dose: 5.0 mg/kg/injection, schedule: Q01DX010 (ip), vehicle: alkali diluted with saline): 6 of 6; T/C (dose: 6.25 mg/kg/injection, schedule: Q01DX Z (ip), vehicle: other): 136 % of control; survivor count (dose: 10.0 mg/kg/injection, schedule: Q01DX010 (ip), vehicle: alkali diluted with saline): 6 of 6; T/C (dose: 12.5 mg/kg/injection, schedule: Q01DX Z (ip), vehicle: other): 110, 118, 130, 159, 169 % of control; T/C (dose: 25.0 mg/kg/injection, schedule: Q01DX Z (ip), vehicle: other): 116, 127, 136, 147, 170 % of control; T/C [2]: 105, 126, 134, 150 % of control; survivor count [2]: 6 of 6; T/C (dose: 80.0 mg/kg/injection, schedule: Q01DX010 (ip), vehicle: alkali diluted with saline): 125 % of control; T/C [3]: 92 and 135 % of control; survivor count [3]: 6 of 6; survivor count (dose: 200.0 mg/kg/injection, schedule: Q01DX Z (ip), vehicle: other): 6 of 6

Which survivor count [4] does the source give for `C[C@]12CCC(=O)C=C1CC[C@@H]1[C@@H]2C(=O)C[C@@]2(C)[C@H]1CC[C@]2(O)C(=O)CO` here?
Its survivor count is 6 of 6.

With `C[C@]12CC[C@H](OC3OC(CO)C(O)C(O)C3O)C[C@H]1CC[C@@H]1[C@@H]2CC[C@]2(C)[C@@H](C3=CCOC3=O)CC[C@]12O` (stereo not given in full) as the compound, how does the survivor count [1] read?
Its survivor count is 6 of 6.

And the survivor count (dose: 4.0 mg/kg/injection, schedule: Q01DX Z (ip), vehicle: saline)?
The survivor count was 6 of 6.

Which T/C [5] does the source give for `O=C(O)CCCc1ccc(N(CCCl)CCCl)cc1` here?
Its T/C is 130 % of control (2×).

And the survivor count (dose: 12.5 mg/kg/injection, schedule: Q01DX Z (ip), vehicle: carboxymethylcellulose (CMC))?
The survivor count was 3 of 6.

What about the survivor count (dose: 25.0 mg/kg/injection, schedule: Q01DX010 (ip), vehicle: saline) of the same compound?
Its survivor count is 0 of 6 and 3 of 6.

What about the survivor count [6] of the same compound?
The survivor count was 3 of 6.

And the survivor count [7]?
Its survivor count is 1 of 6 and 3 of 6.

For `CCn1cnc2c(=S)nc[nH]c21`, which T/C (dose: 125.0 mg/kg/injection, schedule: Q01DX010 (ip), vehicle: saline) is on record?
Its T/C is 127 % of control.

What about the survivor count (dose: 250.0 mg/kg/injection, schedule: Q01DX Z (ip), vehicle: carboxymethylcellulose (CMC)) of the same compound?
The survivor count was 4 of 6.

What does the source list for `CSc1ncnc2c1ncn2C1OC(CO)C(O)C1O` (stereo not given)?
T/C (dose: 6.25 mg/kg/injection, schedule: Q01DX Z (ip), vehicle: carboxymethylcellulose (CMC)): 138 % of control; survivor count [7]: 4 of 6

`C[C@H]1C(=O)O[C@@H]2CCN3CC=C(COC(=O)[C@](C)(O)[C@@]1(C)O)[C@H]23` was tested. Which T/C [8] did it give?
The T/C was 125 % of control.

And the T/C [5]?
Its T/C is 125 % of control.

What about the T/C (dose: 120.0 mg/kg/injection, schedule: Q01DX Z (ip), vehicle: carboxymethylcellulose (CMC)) of the same compound?
Its T/C is 133 % of control.

And the survivor count (dose: 240.0 mg/kg/injection, schedule: Q01DX Z (ip), vehicle: carboxymethylcellulose (CMC))?
The survivor count was 0 of 6.

What about the survivor count (dose: 480.0 mg/kg/injection, schedule: Q01DX Z (ip), vehicle: carboxymethylcellulose (CMC)) of the same compound?
Its survivor count is 0 of 6.

For `Nc1nc(SCc2ccccc2)c2[nH]cnc2n1`, which survivor count (dose: 37.5 mg/kg/injection, schedule: Q01DX Z (ip), vehicle: carboxymethylcellulose (CMC)) is on record?
The survivor count was 6 of 6.

What about the survivor count (dose: 75.0 mg/kg/injection, schedule: Q01DX Z (ip), vehicle: carboxymethylcellulose (CMC)) of the same compound?
Its survivor count is 6 of 6.

`CN(C)CC(=O)c1ccc(O)c(O)c1` was tested. Which survivor count (dose: 1000.0 mg/kg/injection, schedule: Q01DX Z (ip), vehicle: saline) did it give?
Its survivor count is 0 of 6.

Which results are given for `c1ccc(CCSc2ncnc3nc[nH]c23)cc1`?
T/C (dose: 250.0 mg/kg/injection, schedule: Q01DX010 (ip), vehicle: saline): 130 % of control; T/C (dose: 500.0 mg/kg/injection, schedule: Q01DX010 (ip), vehicle: saline): 140 % of control

What does the source list for `Clc1ccc(C(c2ccccc2Cl)C(Cl)Cl)cc1` (stereo not given)?
T/C (dose: 0.4 mg/kg/injection, schedule: Q01DX Z (sc), vehicle: steroid suspending solution): 130 % of control; T/C (dose: 1.6 mg/kg/injection, schedule: Q01DX Z (sc), vehicle: steroid suspending solution): 132 and 139 % of control; T/C (dose: 3.1 mg/kg/injection, schedule: Q01DX Z (sc), vehicle: steroid suspending solution): 125 % of control; T/C (dose: 6.25 mg/kg/injection, schedule: Q01DX Z (sc), vehicle: steroid suspending solution): 128 and 137 % of control; survivor count (dose: 200.0 mg/kg/injection, schedule: Q01DX Z (sc), vehicle: steroid suspending solution): 6 of 6

How did the T/C (dose: 50.0 mg/kg/injection, schedule: Q01DX010 (ip), vehicle: saline) turn out when `CN(C)/N=N/c1nc[nH]c1C(N)=O` was run?
The T/C was 144 % of control.

And the T/C [9]?
Its T/C is 135 % of control.

And the survivor count (dose: 400.0 mg/kg/injection, schedule: Q01DX010 (ip), vehicle: saline)?
The survivor count was 4 of 6.

How did the T/C (dose: 20.0 mg/kg/injection, schedule: Q01DX010 (ip), vehicle: saline) turn out when `O=c1[nH]c(=O)n(C2CC(O)C(CO)O2)cc1F` (stereo not given) was run?
Its T/C is 127 % of control.

What about the T/C [6] of the same compound?
Its T/C is 138 % of control.

What about the T/C [7] of the same compound?
Its T/C is 126 % of control.

And the survivor count (dose: 80.0 mg/kg/injection, schedule: Q01DX010 (ip), vehicle: saline)?
Its survivor count is 6 of 6.

What about the T/C (dose: 100.0 mg/kg/injection, schedule: Q01DX Z (ip), vehicle: carboxymethylcellulose (CMC)) of the same compound?
The T/C was 143 % of control.

And the survivor count (dose: 200.0 mg/kg/injection, schedule: Q01DX Z (ip), vehicle: carboxymethylcellulose (CMC))?
Its survivor count is 6 of 6.

What about the survivor count (dose: 400.0 mg/kg/injection, schedule: Q01DX Z (ip), vehicle: carboxymethylcellulose (CMC)) of the same compound?
The survivor count was 6 of 6.

`c1ccc(CNc2ncnc3[nH]ncc23)cc1` was tested. Which survivor count (dose: 7.8 mg/kg/injection, schedule: Q01DX Z (ip), vehicle: carboxymethylcellulose (CMC)) did it give?
The survivor count was 6 of 6.

And the survivor count (dose: 15.6 mg/kg/injection, schedule: Q01DX Z (ip), vehicle: carboxymethylcellulose (CMC))?
Its survivor count is 6 of 6.

What about the survivor count (dose: 31.2 mg/kg/injection, schedule: Q01DX Z (ip), vehicle: carboxymethylcellulose (CMC)) of the same compound?
The survivor count was 5 of 6.

And the survivor count (dose: 62.5 mg/kg/injection, schedule: Q01DX Z (ip), vehicle: carboxymethylcellulose (CMC))?
Its survivor count is 0 of 6.

What does the source list for `N[C@@H](Cc1ccc(N(CCCl)CCCl)cc1)C(=O)O`?
T/C (dose: 0.16 mg/kg/injection, schedule: Q01DX Z (ip), vehicle: saline): 138 % of control; survivor count [10]: 6 of 6; survivor count [11]: 6 of 6

With `CC(=O)[C@H]1CC[C@H]2[C@@H]3C[C@H](C)C4=CC(=O)CC[C@]4(C)[C@H]3C(=O)C[C@]12C` as the compound, how does the survivor count [4] read?
Its survivor count is 3 of 6.

What about the survivor count (dose: 800.0 mg/kg/injection, schedule: Q01DX Z (sc), vehicle: steroid suspending solution) of the same compound?
The survivor count was 5 of 6.

Which results are given for `N=[N+]=CC(=O)OCC(N)C(=O)O` (stereo not given)?
T/C (dose: 1.88 mg/kg/injection, schedule: Q01DX Z (ip), vehicle: saline): 139 % of control; T/C (dose: 2.5 mg/kg/injection, schedule: Q01DX Z (ip), vehicle: saline): 147 % of control; T/C (dose: 3.13 mg/kg/injection, schedule: Q01DX010 (ip), vehicle: saline): 125 and 135 % of control; T/C (dose: 5.0 mg/kg/injection, schedule: Q01DX Z (ip), vehicle: saline): 90, 107, 125, 164 % of control; T/C [8]: 135 and 140 % of control; T/C (dose: 7.5 mg/kg/injection, schedule: Q01DX Z (ip), vehicle: saline): 148 % of control; T/C (dose: 10.0 mg/kg/injection, schedule: Q01DX Z (ip), vehicle: saline): 92, 119 (2×), 170 % of control; T/C [5]: 140 % of control; survivor count [10]: 6 of 6; survivor count [11]: 6 of 6

Which survivor count (dose: 100.0 mg/kg/injection, schedule: Q01DX010 (ip), vehicle: saline) does the source give for `O=[n+]1c2c(n([O-])c3ccccc31)-c1cccc3cccc-2c13` here?
The survivor count was 6 of 6.

And the survivor count [9]?
The survivor count was 6 of 6.
